From patent publication US20120276049A1, “Methods and compositions for amelioration of autoimmune disease using fusion proteins of anti-dendritic cell receptor antibody to peptide sequences” (President and Fellows of Harvard College, priority 2009, published 2012)
At least one peptide structure holds a part that was inferred or is arguable (an end, a ring closure or a residue).

Tests used:
[1] = system: EAE induced by PLP 139-151 in SJL/J mice; experiment: EAE induced by PLP139-151 in SJL mice after pre-immunization with J5 or J5 fusion antibodies; type: in vivo, mouse; settings: J5 300 μg 10 days before PLP139-151/CFA/PT; FIG. 2 panel A; untreated control 4.5
[2] = system: Experimental Autoimmune Encephalomyelitis (EAE, the mouse model of MS); settings: compared with Copaxone; cited from earlier work

**Q.** With `CC(C)[C@H](NC(=O)[C@H](CCCCN)NC(=O)[C@@H]1CCCN1C(=O)[C@H](CCCCN)NC(=O)[C@@H](N)CCC(=O)O)C(=O)N[C@@H](CCC(=O)O)C(=O)N[C@@H](C)C(=O)N[C@@H](Cc1ccc(O)cc1)C(=O)N[C@@H](CCCCN)C(=O)N[C@@H](C)C(=O)N[C@@H](C)C(=O)N[C@@H](C)C(=O)N[C@@H](C)C(=O)N1CCC[C@H]1C(=O)N[C@@H](C)C(=O)O` [J5, EKPKVEAYKAAAAPA] as the compound, how does the “peak symptoms (EAE score, scale 0-5)” value [1] read?
**A.** 3

**Q.** What about the “effectiveness in treatment of EAE” value [2] of the same compound?
**A.** far more effective than Copaxone
